No constants are given. Whether binding was seen depends on the method and setting. In cells and extracts the contact can be indirect. Some entries that bind do so weakly or less than the wild type. For some of these results: Tags and fused reporters may be left off the sequences shown.
What was measured:
Test in all cases: split reporter; BiFC in Arabidopsis protoplasts, PEG transformation with YFP-N and YFP-C plasmids (35S promoter), YFP seen by confocal microscopy after 12-16 h
[1] = molecular target: AtACS7 (type III ACC synthase ACS7) fused to a YFP half for BiFC (Arabidopsis thaliana) (UniProt Q9STR4)
[2] = molecular target: T1, 14-3-3ω fused to a YFP half for BiFC (Arabidopsis) (UniProt Q01525)
T1 sequence: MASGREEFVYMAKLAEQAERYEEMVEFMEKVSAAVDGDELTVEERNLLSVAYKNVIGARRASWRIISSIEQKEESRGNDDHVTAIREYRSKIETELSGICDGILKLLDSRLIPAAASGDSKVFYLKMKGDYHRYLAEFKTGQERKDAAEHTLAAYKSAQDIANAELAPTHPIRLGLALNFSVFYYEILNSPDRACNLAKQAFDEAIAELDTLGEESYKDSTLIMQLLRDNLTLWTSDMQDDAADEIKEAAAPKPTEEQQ

[3] = molecular target: AtACS7 with Ser216 mutated to alanine, fused to a YFP half for BiFC (Arabidopsis thaliana) (UniProt Q9STR4)
[4] = molecular target: AtACS7 with Thr296 and Ser299 both mutated to alanine, fused to a YFP half for BiFC (Arabidopsis thaliana) (UniProt Q9STR4)

AtACS7 (type III ACC synthase ACS7) fused to a YFP half for BiFC (from UniProt Q9STR4 1-447) (enzyme)
binding [1]: binds | binding [2]: binds

B1: AtACS7 with Ser216 mutated to alanine, fused to a YFP half for BiFC (enzyme, UniProt Q9STR4 1-447)
chain: MGLPLMMERSSNNNNVELSRVAVSDTHGEDSPYFAGWKAYDENPYDESHNPSGVIQMGLAENQVSFDLLETYLEKKNPEGSMWGSKGAPGFRENALFQDYHGLKTFRQAMASFMEQIRGGKARFDPDRIVLTAGATAANELLTFILADPNDALLVPTPYYPGFDRDLRWRTGVKIVPIHCDSSNHFQITPEALESAYQTARDANIRVRGVLITNPANPLGATVQKKVLEDLLDFCVRKNIHLVSDEIYSGSVFHASEFTSVAEIVENIDDVSVKERVHIVYSLSKDLGLPGFRVGTIYSYNDNVVRTARRMSSFTLVSSQTQHMLASMLSDEEFTEKYIRINRERLRRRYDTIVEGLKKAGIECLKGNAGLFCWMNLGFLLEKKTKDGELQLWDVILKELNLNISPGSSCHCSEVGWFRVCFANMSENTLEIALKRIHEFMDRRRRF
binding [3]: binds

B2: AtACS7 with Thr296 and Ser299 both mutated to alanine, fused to a YFP half for BiFC (enzyme, UniProt Q9STR4 1-447)
chain: MGLPLMMERSSNNNNVELSRVAVSDTHGEDSPYFAGWKAYDENPYDESHNPSGVIQMGLAENQVSFDLLETYLEKKNPEGSMWGSKGAPGFRENALFQDYHGLKTFRQAMASFMEQIRGGKARFDPDRIVLTAGATAANELLTFILADPNDALLVPTPYYPGFDRDLRWRTGVKIVPIHCDSSNHFQITPEALESAYQTARDANIRVRGVLITNPSNPLGATVQKKVLEDLLDFCVRKNIHLVSDEIYSGSVFHASEFTSVAEIVENIDDVSVKERVHIVYSLSKDLGLPGFRVGAIYAYNDNVVRTARRMSSFTLVSSQTQHMLASMLSDEEFTEKYIRINRERLRRRYDTIVEGLKKAGIECLKGNAGLFCWMNLGFLLEKKTKDGELQLWDVILKELNLNISPGSSCHCSEVGWFRVCFANMSENTLEIALKRIHEFMDRRRRF
binding [4]: binds

From paper PMC3808318, “A type III ACC synthase, ACS7, is involved in root gravitropism in Arabidopsis thaliana” (Journal of Experimental Botany, 2013)
